The list shows a part of the results. These are further read-outs of the screen, such as a control signal, another cell line or another target. No call is given for them. Most of these compounds were active or inconclusive in the main read-out, so they are no random draw. The note in brackets gives the kind of curve behind each potency; many fits are weak.
Test: qHTS Assay for Modulators of Lamin A Splicing
Details: HeLa LMNA splicing GFP/RFP minigene ratio, 48 h
Procedure, shortened: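 Read-out is the ratio of GFP to DsRed2 object intensity, acquired by 488 nm laser-scanning cytometry on HeLa lamin A-EGFP minigene reporter cells. Compound incubation 48 hrs at 37 °C in Opti-MEM with 2% FBS; DMSO 0.5% final.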

[1] = measured here: RFP viability control channel
[2] = measured here: GFP splicing reporter channel

O=S(=O)(Nc1ccc(-c2ccc(N3CCCCCC3)nn2)cc1)c1ccc(C(F)(F)F)cc1
AC50 [1]: 2.82 µM [rising, partial curve, poor fit]

Cc1cc(C)n(-c2ccc(C(=O)Nc3nnc(C)s3)cc2)n1
AC50 [2]: 35.5 µM [rising, single point]
AC50 [1]: 31.6 µM [rising, single point]

Cc1ccc2c(c1)-c1onc(C(=O)N3CCN(c4cccc(C)c4C)CC3)c1CO2
AC50 [2]: 11.2 µM [falling, single point]

Cc1cc(C(F)(F)F)c2c(N)c(C(=O)Nc3c(Cl)cccc3Cl)sc2n1
AC50 [2]: 2.82 µM [rising, partial curve, poor fit]
AC50 [1]: 0.501 µM [rising, full curve, poor fit]

CCN(CCNC(=O)C1CCCN(Cc2nc(-c3ccc(OC)cc3)oc2C)C1)c1ccccc1 (stereo not given)
AC50 [2]: 12.6 µM [rising, partial curve]
AC50 [1]: 22.4 µM [rising, partial curve]

COC(=O)N/N=C/c1ccc(/C=N/NC(=O)OC)cc1
AC50 [2]: 0.224 µM [falling, partial curve, poor fit]
AC50 [1]: 1.78 µM [falling, partial curve, poor fit]

Fc1ccc(NC(=S)N2CCCc3ccccc32)cc1
AC50 [2]: 15.8 µM [rising, single point]
AC50 [1]: 20 µM [rising, single point]

O=P1(c2ccccc2)C=Cn2c1cc1c2CCCC1 (stereo not given)
AC50 [2]: 31.6 µM [rising, single point]

Cc1nn(Cc2ccccc2Cl)c(C)c1NC(=O)CSc1n[nH]c(C)c1[N+](=O)[O-]
AC50 [1]: 15.8 µM [rising, partial curve]

O=[N+]([O-])c1ccc2c(c1)nc1n2CCN(CC2CCCO2)C1 (stereo not given)
AC50 [2]: 17.8 µM [falling, partial curve, poor fit]

CCc1ccc(OCC(=O)NCC(c2ccc(Cl)cc2)N2CCOCC2)cc1 (stereo not given)
AC50 [2]: 3.16 µM [falling, full curve, poor fit]
AC50 [1]: 1.26 µM [falling, full curve, poor fit]

Cc1cc(C)c(NC(=O)c2ccc(CN3CCc4ccccc4C3)cc2)c(C)c1
AC50 [1]: 35.5 µM [rising, single point]

CC(C)C(c1nnnn1Cc1ccco1)N1CCN(c2cccc(Cl)c2)CC1 (stereo not given)
AC50 [2]: 31.6 µM [rising, single point]
AC50 [1]: 35.5 µM [rising, single point]

COc1ccc(N2CCc3c(C)nc(SC)nc32)cc1
AC50 [1]: 5.62 µM [rising, single point]

Cc1cccc(NC(=O)CSc2nc3ccccc3c3nc(CCn4cncc4C)nn23)c1
AC50 [2]: 1.58 µM [falling, partial curve, poor fit]

Nc1cc(Cl)ccc1N1CCCCCC1
AC50 [2]: 11.2 µM [falling, partial curve]
AC50 [1]: 35.5 µM [falling, single point]

CCn1ncc(C2=NOC(C(=O)NCc3ccc(OC)cc3)C2)c1C (stereo not given)
AC50 [2]: 35.5 µM [rising, single point]
AC50 [1]: 31.6 µM [rising, single point]

CC(C)Oc1ccc(CNC(=O)C2CCN(C(=O)N3CCOc4ccc(Cl)cc43)CC2)cc1
AC50 [1]: 22.4 µM [rising, single point]

CCOC(=O)C1(Nc2nccs2)Sc2ccccc2NC1=O (stereo not given)
AC50 [1]: 0.1 µM [rising, single point]

O=C(CNC(=O)c1ccccc1)N/N=C/c1cc(Br)ccc1O
AC50 [1]: 14.1 µM [rising, single point]

CCOc1ccc(Cc2nc(N)nc(N)n2)cc1
AC50 [1]: 35.5 µM [rising, single point]

O=C(Nc1ccc(NC(=S)NC(=O)c2cccs2)cc1)c1ccco1
AC50 [2]: 14.1 µM [falling, single point]
AC50 [1]: 10 µM [falling, partial curve]

Cc1ccccc1Cn1c(=N)n(CC(=O)c2ccc([N+](=O)[O-])cc2)c2ccccc21
AC50 [1]: 0.0501 µM [rising, full curve, poor fit]

CC(=O)Nc1cc(C(=O)NCCN2CCN(Cc3ccccc3)CC2)ccc1Sc1ccc(C)cc1
AC50 [2]: 1.12 µM [falling, partial curve]
AC50 [1]: 1.41 µM [falling, partial curve]

O=[N+]([O-])c1cc(S(=O)(=O)C(F)(F)F)ccc1Sc1nc2ccccc2[nH]1
AC50 [2]: 3.55 µM [falling, partial curve, poor fit]
AC50 [1]: 25.1 µM [falling, single point]

Cc1cccc(N(Cc2ccc(Cl)cc2)S(C)(=O)=O)c1
AC50 [2]: 0.794 µM [rising, full curve, poor fit]

Cc1cccc(NC(=S)NNC(=O)c2csc(C(C)C)c2)c1
AC50 [1]: 35.5 µM [rising, single point]

Cc1cc2nnc(SCC(=O)NCc3cccs3)n2c2ccccc12
AC50 [1]: 4.47 µM [rising, full curve]

O=C(CSc1nc2ccc(Cl)cc2[nH]1)NCCc1ccc(Cl)cc1
AC50 [2]: 12.6 µM [rising, single point]
AC50 [1]: 22.4 µM [rising, single point]

COc1cccc(C2CN(c3ccc(F)cc3F)N=C2c2cccs2)c1OC (stereo not given)
AC50 [1]: 22.4 µM [rising, single point]

COC(=O)CNC(c1ccccc1Cl)c1cc(Br)ccc1NS(=O)(=O)c1ccc(C)cc1 (stereo not given)
AC50 [1]: 35.5 µM [rising, single point]

O=C1CCCN1c1ccc(S(=O)(=O)NCCc2ccc(Cl)cc2)cc1
AC50 [1]: 35.5 µM [rising, single point]

COc1cc(-c2nc3cnccn3c2Nc2ccc(C(C)C)cc2)ccc1O
AC50 [2]: 15.8 µM [falling, single point]
AC50 [1]: 15.8 µM [falling, single point]

COc1ccc([C@H]2[C@H](C(=O)OC(C)(C)C)N3N=Cc4ccccc4C3C23C(=O)c2ccccc2C3=O)c(OC)c1 (stereo not given in full)
AC50 [2]: 35.5 µM [rising, single point]

Cc1nn2c(=O)cc(COC(=O)c3ccc(NC(=O)c4ccc(C(C)(C)C)cc4)cc3)nc2s1
AC50 [2]: 14.1 µM [falling, partial curve]
AC50 [1]: 15.8 µM [falling, partial curve]

Reference: PubChem BioAssay AID1487 (National Center for Advancing Translational Sciences (NCATS), 2009)
